Two substances from article PMC4237471 can be followed below.

Sequences of proteins named here, by UniProt entry; tags and fusion partners are left off. A change or cut given only in a name is not applied to a line headed by its entry.
UniProt O00499: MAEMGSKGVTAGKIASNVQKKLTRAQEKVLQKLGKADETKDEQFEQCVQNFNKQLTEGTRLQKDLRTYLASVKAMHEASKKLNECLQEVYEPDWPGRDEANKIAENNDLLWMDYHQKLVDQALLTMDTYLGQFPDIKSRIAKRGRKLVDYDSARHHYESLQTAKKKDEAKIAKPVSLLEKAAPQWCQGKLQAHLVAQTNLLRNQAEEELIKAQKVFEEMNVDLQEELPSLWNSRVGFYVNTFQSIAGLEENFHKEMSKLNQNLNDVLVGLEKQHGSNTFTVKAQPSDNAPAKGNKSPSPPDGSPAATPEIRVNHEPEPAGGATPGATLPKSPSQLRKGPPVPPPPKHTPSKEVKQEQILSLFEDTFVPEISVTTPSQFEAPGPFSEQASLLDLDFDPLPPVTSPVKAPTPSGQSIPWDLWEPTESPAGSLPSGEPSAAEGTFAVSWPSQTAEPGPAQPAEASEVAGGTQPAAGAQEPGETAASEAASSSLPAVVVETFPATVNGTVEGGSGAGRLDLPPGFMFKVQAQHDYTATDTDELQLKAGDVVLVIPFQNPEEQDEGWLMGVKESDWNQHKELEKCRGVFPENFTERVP
UniProt O08539: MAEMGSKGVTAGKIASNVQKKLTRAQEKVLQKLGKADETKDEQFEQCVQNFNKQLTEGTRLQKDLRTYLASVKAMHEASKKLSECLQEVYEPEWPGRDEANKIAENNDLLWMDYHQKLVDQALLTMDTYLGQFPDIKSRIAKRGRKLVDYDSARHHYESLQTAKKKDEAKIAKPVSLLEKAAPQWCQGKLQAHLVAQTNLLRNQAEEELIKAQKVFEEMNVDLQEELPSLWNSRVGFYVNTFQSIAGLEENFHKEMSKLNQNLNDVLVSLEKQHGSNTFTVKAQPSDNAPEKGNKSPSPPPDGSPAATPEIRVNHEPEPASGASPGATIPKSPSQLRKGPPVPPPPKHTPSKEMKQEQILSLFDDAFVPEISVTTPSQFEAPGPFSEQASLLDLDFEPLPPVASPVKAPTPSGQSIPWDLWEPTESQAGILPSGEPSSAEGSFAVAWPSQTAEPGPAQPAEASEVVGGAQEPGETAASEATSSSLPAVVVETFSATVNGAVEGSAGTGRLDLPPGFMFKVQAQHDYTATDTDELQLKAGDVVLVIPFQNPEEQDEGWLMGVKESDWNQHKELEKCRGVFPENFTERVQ
UniProt Q91YD9: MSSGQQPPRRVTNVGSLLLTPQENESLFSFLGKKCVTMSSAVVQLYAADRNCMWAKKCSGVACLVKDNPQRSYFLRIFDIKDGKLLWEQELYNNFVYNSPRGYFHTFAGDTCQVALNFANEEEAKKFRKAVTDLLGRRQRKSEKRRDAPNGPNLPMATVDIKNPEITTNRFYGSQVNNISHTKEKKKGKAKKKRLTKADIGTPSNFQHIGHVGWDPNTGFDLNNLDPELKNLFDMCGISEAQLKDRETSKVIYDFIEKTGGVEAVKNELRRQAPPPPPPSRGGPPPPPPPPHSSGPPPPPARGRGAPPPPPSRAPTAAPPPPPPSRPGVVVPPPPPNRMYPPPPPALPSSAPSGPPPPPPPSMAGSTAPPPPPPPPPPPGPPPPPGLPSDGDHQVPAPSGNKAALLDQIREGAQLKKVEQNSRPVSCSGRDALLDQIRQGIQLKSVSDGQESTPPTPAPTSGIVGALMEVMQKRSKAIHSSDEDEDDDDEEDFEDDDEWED

These are yes or no findings as the source states them, for the method shown. In cells and extracts the contact can be indirect. Binding can be weak; no strength is given.

The target in test [1] is GFP-tagged human amph2-D151N (human) (UniProt O00499). The experiment in a line: co-IP; GFP-Trap (Chromotek) precipitation of GFP-tagged amph2 constructs expressed in C2C12 cells; Western blot for endogenous N-WASP and GFP.
In test [2] the target is GFP-tagged human amph2-R154Q (human) (UniProt O00499). The test is described as above.
Test [3] has as its target amphiphysin-2 (amph2), endogenous (mouse (endogenous in primary myofibers and C2C12)) (UniProt O08539). Kind of test: co-IP; endogenous amph2 precipitated with anti-amph2 mAb cross-linked to Dynabeads protein G, RIPA lysates of primary myofibers (agrin 10 days) and C2C12 myotubes (legend of Fig 3B also names mouse muscle); Western blot for N-WASP.
In test [4] the target is N-WASP, endogenous (mouse cells) (mouse (endogenous in primary myofibers and C2C12)) (UniProt Q91YD9). Kind of test: co-IP; endogenous N-WASP precipitated with anti-N-WASP mAb cross-linked to Dynabeads protein G, RIPA lysate of primary myofibers; Western blot for amph2.

“N-WASP, endogenous (mouse cells) (from UniProt Q91YD9 1-501)”: the binding entry in test [1], in test [2] and in test [3] was “binds” each time.

With “amphiphysin-2 (amph2), endogenous (from UniProt O08539-2)”, the binding result in test [4] is “binds”.
